Results are given in words; binding and its absence hold for the method and conditions named. In cells and extracts the contact can be indirect. Here binding means that the protein was enriched with, or labelled near, the bait; the list need not be complete.
Target: serotonin transporter, wildtype (WT SERT) (mouse (endogenous in midbrain synaptosomes)) (UniProt Q60857)
Test: affinity purification with mass spectrometry; SERT immunoprecipitated with C-terminal anti-SERT serum #48 cross-linked to protein A Dynabeads from midbrain synaptosomes (lysed in PBS + 0.7% DDM, 4°C) of WT, SERT Ala56 and SERT KO (negative control) mice; in-gel tryptic digestion, 8-step MudPIT LC-MS/MS; label-free quantification

Chains of the proteins cited; added tags and fusions are not shown.
UniProt Q60857: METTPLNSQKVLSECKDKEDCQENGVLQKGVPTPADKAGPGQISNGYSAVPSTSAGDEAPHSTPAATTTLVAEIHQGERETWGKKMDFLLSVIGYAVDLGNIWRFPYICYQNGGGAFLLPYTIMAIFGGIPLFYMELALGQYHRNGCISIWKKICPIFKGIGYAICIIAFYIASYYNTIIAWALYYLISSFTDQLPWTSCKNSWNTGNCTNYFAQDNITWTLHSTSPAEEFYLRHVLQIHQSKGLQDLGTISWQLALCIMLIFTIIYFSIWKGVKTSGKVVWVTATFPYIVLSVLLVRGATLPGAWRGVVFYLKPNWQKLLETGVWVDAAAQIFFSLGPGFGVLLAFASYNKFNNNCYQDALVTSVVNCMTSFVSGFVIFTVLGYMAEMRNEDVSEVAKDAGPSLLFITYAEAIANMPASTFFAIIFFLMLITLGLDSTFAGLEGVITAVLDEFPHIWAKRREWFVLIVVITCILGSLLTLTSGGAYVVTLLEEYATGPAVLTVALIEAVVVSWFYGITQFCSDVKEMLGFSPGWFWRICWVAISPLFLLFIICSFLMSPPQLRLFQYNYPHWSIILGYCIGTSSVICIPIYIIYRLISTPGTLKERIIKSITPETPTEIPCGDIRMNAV

| binding | Binder |
| --- | --- |
| binds | Agk (protein, UniProt Q9ESW4 1-421) MTAFFKTLRNHWKKTTAGLCLLTWGGHWLYGKHCDNLLRRAACQEAQVFGNQLIPPNAQVKKATVFLNPAACKGKARTLFEKNAAPILHLSGMDVTVVKTDYEGQAKKLLELMESTDVIIVAGGDGTLQEVVTGVLRRTDEATFSKIPIGFIPLGQTSSLSHTLFAESGNKVQHITDATLAIVKGETVPLDVLQIKGEKEQPVYAMTGLRWGSFRDAGVKVSKYWYLGPLKTKAAHFFSTLQEWPQTHQASISYTGPRERPPIEPEETPPRPSLYRRILRRLASFWAQPQDASSREVSPEVWKDVQLSTIELSITTRNTQLDLMSKEDFMNICIEPDTVSKGDFIIIGSKKVRDPGLRAAGTECLQASHCTLVLPEGTEGSFSIDSEEYEAMPVEVKLLPRKLRFFCDPRKREQMLPSTSQ |
| binds | Dgke (protein, UniProt Q9R1C6 1-564) MEGDQRSGPPAQSLLPDGHLVLWTLCSVLLPVFITLWCSLQRSRRQLHRRDIFRKSKHCWRDTDLFSHPTYCCVCAQHILQGAFCDCCGLRVDEGCLKKVDKRFPCKEIMLKNDKAADAMPHHWIRGNVPLCSYCVFCRQQCGSQPKLCDYRCIWCQKTVHDECMRGSLRSEKCDFGEFRNLIIPPSYLTSINQMRKDKNTNYEGLASKFGKQWTPLIILANSRSGTNMGEGLLGEFKILLNPVQVFDVTKTPPIKALQLCTLLPYYSVRVLVCGGDGTVGWVLDAIDEMKIKGQEKYIPEVAVLPLGTGNDLSNTLGWGTGYAGEIPVAQVLRNVMEADGIKLDRWKVQVTNKGYYNLRKPKEFTMNNYFSVGPDALMALNFHAHREKAPSLFSSRILNKAVYLFYGTKDCLVQECKDLNKKIELELDGERVELPNLEGIIVLNIGYWGGGCRLWEGMGDETYPLARHDDGLLEIVGVYGSFHCAQIQVKLANPFRIGQAHTVRLTLKCSMMPMQVDGEPWAQGPCTVTITHKTHALMLYFSGEQSDDDISSPSDHEDVKEAE |
| binds | Atp9a (protein, UniProt O70228 1-1047) MTDSIPLQPVRHKKRVDSRPRAGCCEWLRCCGGGEPRPRTVWLGHPEKRDQRYPRNVINNQKYNFFTFLPGVLFSQFRYFFNFYFLLLACSQFVPEMRLGALYTYWVPLGFVLAVTIIREAVEEIRCYVRDKEMNSQVYSRLTSRGTVKVKSSNIQVGDLILVEKNQRVPADMIFLRTSEKNGSCFLRTDQLDGETDWKLRLPVACTQRLPTAADLLQIRSYVYAEEPNIDIHNFLGTFTREDSDPPISESLSIENTLWAGTVIASGTVVGVVLYTGRELRSVMNTSDPRSKIGLFDLEVNCLTKILFGALVVVSLVMVALQHFAGRWYLQIIRFLLLFSNIIPISLRVNLDMGKIVYSWVIRRDSKIPGTVVRSSTIPEQLGRISYLLTDKTGTLTQNEMVFKRLHLGTVAYGLDSMDEVQSHIFSIYTQQSQDPPAQKGPTVTTKVRRTMSSRVHEAVKAIALCHNVTPVYESNGVTDQAEAEKQFEDSCRVYQASSPDEVALVQWTESVGLTLVGRDQSSMQLRTPGDQVLNLTILQVFPFTYESKRMGIIVRDESTGEITFYMKGADVVMAGIVQYNDWLEEECGNMAREGLRVLVVAKKSLTEEQYQDFEARYVQAKLSVHDRSLKVATVIESLEMEMELLCLTGVEDQLQADVRPTLETLRNAGIKVWMLTGDKLETATCTAKNAHLVTRNQDIHVFRLVTNRGEAHLELNAFRRKHDCALVISGDSLEVCLKYYEYEFMELACQCPAVVCCRCAPTQKAQIVRLLQERTGKLTCAVGDGGNDVSMIQESDCGVGVEGKEGKQASLAADFSITQFKHLGRLLMVHGRNSYKRSAALSQFVIHRSLCISTMQAVFSSVFYFASVPLYQGFLIIGYSTIYTMFPVFSLVLDKDVKSEVAMLYPELYKDLLKGRPLSYKTFLIWVLISIYQGSTIMYGALLLFESEFVHIVAISFTSLILTELLMVALTIQTWHWLMTVAELLSLACYIASLVFLHEFIDVYFIATLSFLWKVSVITLVSCLPLYVLKYLRRRFSPPSYSKLTS |
| binds | Gak (protein, UniProt Q99KY4 1-1305) MSLLQSALDFLAGPGSLGGAAGRDQSDFVGQTVELGELRLRVRRVLAEGGFAFVYEAQDLGSGREYALKRLLSNEEEKNRAIIQEVCFLKKLSGHPNIVQFCSAASIGKEESDTGQAEFLLLTELCKGQLVEFLKRVECKGPLSCDSILKIFYQTCRAVQHMHRQKPPIIHRDLKVENLLLSNQGTIKLCDFGSATTISHYPDYSWSAQKRAMVEEEITRNTTPMYRTPEIVDLYSNFPIGEKQDIWALGCILYLLCFRQHPFEDGAKLRIVNGKYSIPVNDTRYTVFHDLIRAMLKVNPVERLSIAEVVRQLQEIAAARNVNPKAPITELLEQNGGYGNSGPSRAQPPCGGTVNSSGVLALAEYDQPYGGFLDILRGGTERLFTNLKDTSSKVIQSVANYAKGDLDISYITSRIAVMSFPAEGVESAIKNNIEDVRMFLDAKHPGHYAVYNLSPRIYRASKFHNRVTECGWAVRRAPHLHSLYTLCRSMHAWLREDHRNVCVVHCMDGRAASAVAVCAFLCFCRLFSTAEAAVYMFSMKRCPPGIWPSHKRYIEYVCDMVAEEPITPHSKPMLVKSVVMTPVPLFSKQRNGCRPFCEVYVGEERVTTTSQEYDRMKEFKIEDGKAVIPLGVTVQGDVLIIIYHARATLGGRLQAKMASMKMFQIQFHTGFVPRNATTVKFAKYDLDACDIQEKYPDLFQVNLEVEVEPRDRPSREAPPWENTSLRGLNPKILFSNREEQQDILSKFGKPELPRQPGSTAQYDAEAGSPEAEITESDSPQSSSTDTNHFLHTLDWQEEKEPETGLDNTSPKESQSVLIADGDGSEVSDEEEASFPSEERKPGAGEDTPRLAAGTKQQDLIFDVGMLAAPQEPVQPEEGVDLLGLHSEGDLRPAAPLQACGVPSSNTDLLSCLLEPSDAAQVGPPGDLLGGEAPLLLASPVSPLGLQNNLQGKVPDTVDPFDQFLLSSNSDTQPCSKPDLFGEFLNSDSVASSTAFPSTHSAPPPSCSTAFLHLGDLPAEPSKVIASSSHPDLLGGWDTWADTATPGPASIPVPEGTLFSSAGHPAPPGPNPSQTKSQNLDPFADLSDLSSSLQGLPAGLPAGGFVGAPAPTQKSNSPWQANRPTAPGTSWTPQAKPAPRASEQLRSHFSVIGAREERGVRVPSFAQKPKVSENDFEDLLPNQGFSKSDKKGPKTMAEMRKQELARDTDPLKLKLLDWIEGKERNIRALLSTLHTVLWDGESRWTPVSMADLVTPEQVKKQYRRAVLVVHPDKATGQPYEQYAKMIFMELNDAWSEFENQGSRPLF |
| binds | Acsl6 (protein, UniProt Q91WC3 1-697) MQTQEILRILRLPELSDLGQFFRSLSATTLVSVGALAAVLAYWLTHRPKALQPPCNLLKQSEEVEDGGGARRSVIGGCTQLLTHYYDDARTMYQVFRRGLSISGNGPCLGFRKPEQPYQWLSYQEVAKRAEFLGSGLLQHDCKVGTEQFVGVFAQNRPEWIIAELACYTYSMVVVPLYDTLGPGSISYIINTADICTVIVDKPHKATLLLEHVERKETPGLKLVILMEPFEDALRERGKKCGVDIKSMQAIEDCGRENHHAPVPPRPDDLSIVCFTSGTTGNPKGAMLTHGNVVADFSGFLKVTEKVIFPRQDDVLISFLPLAHMFERVIQSVVYCHGGRVGFFQGDIRLLSDDMKALRPTIFPVVPRLLNRMYDKIFHQADTSLKRWLLEFAAKRKQAEVRSGIIRNNSIWDELFFNKIQASLGGHVRMIVTGAAPASPTVLGFLRAALGCQVYEGYGQTECTAGCTFTTPGDWTSGHVGAPLPCNHIKLVDAEELNYWTCKGEGEICVKGPNVFKGYLKDEDRTKEALDSDGWLHTGDIGKWLPEGTLKIIDRKKHIFKLAQGEYVAPEKIENIYIRSEPVAQIYVHGDSLKAFLVGIVVPDPEVMPSWAQKKGIEGTYQELCMKKELKKAILDDMVMLGKESGLHSFEQVKAIYIHCDMFSVQNGLLTPTLKAKRPELREYFKKQIEELYLVSV |
| binds | Cask (protein, UniProt O70589 1-926) MADDDVLFEDVYELCEVIGKGPFSVVRRCINRETGQQFAVKIVDVAKFTSSPGLSTEDLKREASICHMLKHPHIVELLETYSSDGMLYMVFEFMDGADLCFEIVKRADAGFVYSEAVASHYMRQILEALRYCHDNNIIHRDVKPHCVLLASKENSAPVKLGGFGVAIQLGESGLVAGGRVGTPHFMAPEVVKREPYGKPVDVWGCGVILFILLSGCLPFYGTKERLFEGIIKGKYKMNPRQWSHISESAKDLVRRMLMLDPAERITVYEALNHPWLKERDRYAYKIHLPETVEQLRKFNARRKLKGAVLAAVSSHKFNSFYGDPPEELPDFSEDPTSSGLLAAERAVSQVLDSLEEIHALTDCSEKDLDFLHSVFQDQHLHTLLDLYDKINTKSSPQIRNPPSDAVQRAKEVLEEISCYPENNDAKELKRILTQPHFMALLQTHDVVAHEVYSDEALRVTPPPTSPYLNGDSPESANGDMDMENVTRVRLVQFQKNTDEPMGITLKMNELNHCIVARIMHGGMIHRQGTLHVGDEIREINGISVANQTVEQLQKMLREMRGSITFKIVPSYRTQSSSCERDSPSTSRQSPANGHSSTNNSVSDLPSTTQPKGRQIYVRAQFEYDPAKDDLIPCKEAGIRFRVGDIIQIISKDDHNWWQGKLENSKNGTAGLIPSPELQEWRVACIAMEKTKQEQQASCTWFGKKKKQYKDKYLAKHNAVFDQLDLVTYEEVVKLPAFKRKTLVLLGAHGVGRRHIKNTLITKHPDRFAYPIPHTTRPPKKDEENGKNYYFVSHDQMMQDISNNEYLEYGSHEDAMYGTKLETIRKIHEQGLIAILDVEPQALKVLRTAEFAPFVVFIAAPTITPGLNEDESLQRLQKESDVLQRTYAHYFDLTIINNEIDETIRHLEEAVELVCTAPQWVPVSWVY |
| binds | Araf (protein, UniProt P04627 1-604) MEPPRGPPVSGAEPSRAVGTVKVYLPNKQRTVVTVREGMSVYDSLDKALKVRGLNQDCCVVYRLIKGRKTVTAWDTAIAPLDGEELIVEVLEDVPLTMHNFVRKTFFSLAFCDFCLKFLFHGFRCQTCGYKFHQHCSSKVPTVCVDMSTNRRQFYHSIQDLSGGSRQQEAPSNLSVNELLTPQGPSPFTQQRDQEHFSFPAPANPPLQRIRSTSTPNVHMVSTTAPMDSSLMQFTAQSFSTDAAGRGGDGAPRGSPSPASVSSGRKSPHSKLPSEQRERKSLADEKKKVKNLGYRDSGYYWEVPPSEVQLLKRIGTGSFGTVFRGRWHGDVAVKVLKVAQPTAEQAQAFKNEMQVLRKTRHVNILLFMGFMTRPGFAIITQWCEGSSLYHHLHVADTRFDMVQLIDVARQTAQGMDYLHAKNIIHRDLKSNNIFLHEGLTVKIGDFGLATVKTRWSGAQPLEQPSGSVLWMAAEVIRMQDPNPYSFQSDVYAYGVVLYELMTGSLPYSHIGSRDQIIFMVGRGYLSPDLSKIFSNCPKAMRRLLTDCLKFQREERPLFPQILATIELLQRSLPKIERSASEPSLHRTQADELPACLLSAARLVP |

Reference: article PMC7295033
